Out of some 52,000 sequences screened, about 210 (0.4%) were called active.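 Rule for the calls: active = gene whose silencing raises cell survival under the drug, median off-target-corrected z-score across its silencing RNAs 2 or more; inactive = the rest.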 The list shows a part of the results.
Assay: Resistance to Poly (ADP-Ribose) Polymerase inhibitor: Gene Identification via Genome-wide siRNA Screen
Conditions: mouse BRCA2 R2336H ES cells, olaparib, CellTiter-Glo viability; stronger effect = higher value
Summary of the method: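 Genome-wide siRNA screen (3 siRNAs/gene, 20 nM) in mouse ES cells carrying hypomorphic BRCA2 R2336H; olaparib 500 nM added 48 h post-transfection, CellTiter-Glo viability 72 h later. Normalized to plate-median negative control; MAD z-scores, gene median, seed-adjusted.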

Sequence	z-score
GGAGUGCCUUUAGACAUGCTT against Trf3	inactive: -0.577
CGUAAGAAGUGGAUGAACATT against Zc3hdc7	inactive: 0.415
GGAGCUGACAGACUUCCUGTT against Fosl1	inactive: -1.51
GGCUUUAAGACAUAGUACUTT against Lbh	inactive: 1.21
GGUAUUUACCAUUAGCAGGTT against 6330442E10Rik	inactive: -0.39
CGAGUGUAAAUCCACUUUGTT against 0610039J04Rik	inactive: -0.66
GAACUGGUCCUACAAUGAATT against BC014685	inactive: -0.212
GGGUAAACAAACAGGUACCTT against 1200009O22Rik	inactive: 0.98
CCUUAACCUGGACAAGUGCTT against Itm2b	inactive: -0.222
CCCUCCAUGUCUAAAAAAATT against Kcmf1	inactive: 0.105
GCUCCUAUUACUGAAUUUATT against Olfr749	inactive: 1.28
GGCAAUUGGAAAUGCCCUGTT against Atp5h	inactive: -0.553
GCGUAGACUUGAGGACUUATT against Rxrip110	inactive: -1.51
GGUGCUCCUAUCCUGUUCATT against 2810489O06Rik	inactive: -0.818
GGGACAAUGGAGCAAGAUGTT against Fbxo42	inactive: -0.281
GGUUACUUAGCUUUUCUGATT against Tnfaip2	inactive: 0.532
GGUUGGACAAAAUGAUCUUTT against Abhd5	inactive: 0.728
GGAAUUCCCAUUGGAAGAATT against V1re4	inactive: 0.982
CCAUCAAAACGAUCAACAATT against Setbp1	inactive: 0.457
GGCUUUUGUUUUGAGGUAGTT against Zbed3	inactive: -0.201
GGUUUUCUUCUGAAUACCCTT against Dusp4	inactive: 1.09
GCUGAUAUGCUAUUGUAGATT against Defcr5	inactive: 0.615
GGUUGAAGGAGUGUUUUAUTT against D10Wsu52e	inactive: -0.635
GGAGUUUGAUGCAAAUUUUTT against Plpi	inactive: -0.147
CCACUGAGCCCAAUGGGUUTT against Nrxn2	inactive: -1.05
CCUCCUAAGGAUGAAGAUUTT against Calml4	inactive: -0.342
GGAUAUACUUACGUAACGGTT against Srp9	inactive: 0.665
GGAAAGCACUUUUAUUCCUTT against 3110007P09Rik	inactive: 1.88
GGUAAUGUUUGAAACUUACTT against Actr2	inactive: 0.476

2 entries from above in a different format.
Sequence,z-score
GGUUACUUAGCUUUUCUGATT against Tnfaip2,inactive: 0.532
CCAUCAAAACGAUCAACAATT against Setbp1,inactive: 0.457
